Results as given in BindingDB's records for doi:10.1016/s0028-3908(97)00049-x (Roche Bioscience, 1997).

Chains of the proteins cited; added tags and fusions are not shown.
UniProt P41595, whole entry: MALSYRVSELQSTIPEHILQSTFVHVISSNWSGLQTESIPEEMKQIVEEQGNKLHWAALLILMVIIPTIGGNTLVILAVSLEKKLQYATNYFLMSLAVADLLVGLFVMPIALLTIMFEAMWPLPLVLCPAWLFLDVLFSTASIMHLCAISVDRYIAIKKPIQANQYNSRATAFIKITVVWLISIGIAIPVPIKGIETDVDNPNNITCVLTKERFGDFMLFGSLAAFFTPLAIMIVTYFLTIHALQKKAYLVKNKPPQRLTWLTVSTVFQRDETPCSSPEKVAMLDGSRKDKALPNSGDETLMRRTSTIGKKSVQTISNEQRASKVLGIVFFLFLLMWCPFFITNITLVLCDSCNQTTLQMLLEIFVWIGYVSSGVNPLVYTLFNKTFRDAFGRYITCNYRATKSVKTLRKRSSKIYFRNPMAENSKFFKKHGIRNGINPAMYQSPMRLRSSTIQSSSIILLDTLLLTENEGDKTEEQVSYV

Target: 5-hydroxytryptamine receptor 2B (Homo sapiens, UniProt P41595)

CC[C@@H](CO)NC(=O)[C@@H]1C=C2c3cccc4c3c(cn4C)C[C@H]2N(C)C1
Ki: 1.65 nM
